Measurements reported in PubChem BioAssay AID504774 (Drosophila RNAi Screening Center, 2011).
In all, the deposit lists about 23,000 reagents; this is an unselected part of those that have a named target and a result. 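Values are quantile-normalised luminescence on an arbitrary scale; higher means more cells surviving MMS.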 Reagents against one gene are numbered here. No sequences are given here.

Assay: 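Fly genes whose loss alters survival after alkylation damage to DNA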 (primary screen)
Cell system: Drosophila Kc167 cells
Reagents: long dsRNA against Drosophila genes, about 0.25 µg dsRNA per well
Duration: about 6 days: 3 days knock-down, then 3 days with or without MMS
Challenge: methyl methanesulphonate 0.004% (w/v) for 3 days after knock-down
Measured: 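ATP-dependent luminescence as a measure of live cells in MMS-exposed wells, quantile normalised within each plate, with replicate values also given as a mean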
Direction: mean viability with MMS and viability with MMS: higher = more surviving cells after MMS

The opening 3 entries, to show the layout:
no.	gene knocked down	reagent no.	mean viability with MMS	viability with MMS, replicate 1	viability with MMS, replicate 2
1	h-cup	1	3.39e6	3.82e6	3.83e6
2	mor	1	3.45e6	3.96e6	3.84e6
3	CR40354	1	2.25e6	3.97e6	3.61e6

The listing, from the start:
no.	gene knocked down	reagent no.	mean viability with MMS	viability with MMS, replicate 1	viability with MMS, replicate 2
1	h-cup	1	3.39e6	3.82e6	3.83e6
2	mor	1	3.45e6	3.96e6	3.84e6
3	CR40354	1	2.25e6	3.97e6	3.61e6
4	CG18747	1	3.60e6	4.16e6	4.00e6
5	slif	1	3.65e6	3.99e6	4.26e6
6	CG32832	1	3.54e6	3.96e6	4.07e6
7	Rme-8	1	3.53e6	3.95e6	4.05e6
8	xmas	1	3.45e6	3.96e6	3.90e6
9	xmas	2	3.67e6	4.08e6	4.18e6
10	Paics	1	3.64e6	4.32e6	4.27e6
11	Rpt3	1	2.85e6	3.62e6	3.60e6
12	tok	1	3.34e6	3.80e6	3.82e6
13	GstZ1	1	3.70e6	4.20e6	4.20e6
14	CG4701	1	3.34e6	3.74e6	3.80e6
15	SmydA-1	1	3.72e6	4.04e6	4.40e6
16	brn	1	3.10e6	3.73e6	3.69e6
17	CG13566	1	3.49e6	4.08e6	3.82e6
18	CG11475	1	3.61e6	4.28e6	3.84e6
19	x16	1	3.31e6	3.65e6	3.88e6
20	x16	2	3.61e6	4.21e6	4.00e6
21	CG31036	1	3.50e6	3.87e6	4.04e6
22	CG31036	2	3.53e6	4.01e6	3.99e6
23	Cftr	1	3.64e6	4.11e6	4.11e6
24	Pdk	1	3.70e6	4.27e6	4.12e6
25	tutl	1	3.63e6	4.10e6	4.10e6
26	tutl	2	3.59e6	4.18e6	3.94e6
27	tutl	3	3.22e6	3.62e6	3.51e6
28	Madm	1	3.55e6	4.05e6	4.01e6
29	Fdh	1	3.59e6	4.03e6	4.14e6
30	CG13708	1	3.67e6	4.32e6	4.01e6
31	CG32152	1	3.52e6	4.00e6	4.00e6
32	CG3662	1	3.76e6	4.19e6	4.39e6
33	CG7675	1	3.69e6	4.19e6	4.13e6
34	MFS1	1	3.69e6	4.06e6	4.29e6
35	CG4230	1	3.75e6	4.46e6	4.11e6
36	ARY (retired record)	1	2.49e6	3.88e6	4.24e6
37	CR31958	1	3.52e6	3.91e6	4.06e6
38	CR31958	2	3.56e6	4.05e6	4.01e6
39	CG18404	1	3.68e6	4.06e6	4.28e6
40	CG14835	1	3.60e6	4.04e6	4.15e6
41	Pngl	1	3.67e6	4.22e6	4.11e6
42	meigo	1	3.29e6	3.79e6	3.70e6
43	CG5828	1	3.34e6	3.64e6	3.86e6
44	CG9632	1	3.43e6	3.99e6	3.78e6
45	sosie	1	3.58e6	3.96e6	4.16e6
46	sosie	2	3.66e6	4.21e6	4.05e6
47	Anp	1	3.50e6	3.91e6	3.99e6
48	Cp7Fc	1	3.54e6	3.99e6	4.06e6
49	AANATL4	1	3.54e6	4.02e6	4.00e6
50	Srp72	1	3.87e6	4.21e6	4.42e6
51	CG5921	1	3.60e6	4.05e6	4.09e6
52	CG5921	2	3.52e6	4.03e6	3.97e6
53	CG11828	1	3.44e6	3.74e6	4.03e6
54	CG11828	2	3.68e6	4.12e6	4.13e6
55	babos	1	3.44e6	3.87e6	3.95e6
56	babos	2	3.59e6	4.20e6	4.14e6
57	Esyt2	1	3.59e6	4.09e6	4.05e6
58	CG31141	1	3.56e6	4.02e6	4.06e6
59	Srg1	1	3.55e6	4.08e6	3.95e6
60	nenya	1	3.58e6	4.01e6	4.11e6
61	gdrd	1	3.50e6	4.08e6	3.85e6
62	E(spl)m6-BFM	1	3.66e6	4.15e6	4.13e6
63	CG3513	1	3.62e6	3.99e6	4.19e6
64	CG42327	1	3.28e6	3.75e6	3.82e6
65	CG42327	2	3.53e6	4.00e6	4.04e6
66	CG42327	3	3.55e6	3.97e6	4.11e6
67	CG9896	1	3.54e6	3.96e6	4.06e6
68	CG9896	2	3.58e6	4.11e6	4.02e6
